The structures appear in SMILES notation. The list shows a part of the results. Shown are side measurements of this screen, not its main read-out; they come without a call. Most of these compounds were active or inconclusive in the main read-out, so they are no random draw. The note in brackets gives the kind of curve behind each potency; many fits are weak.

For 61 molecules, cell number change and AC50 results are on record in PubChem BioAssay AID2685 (National Center for Advancing Translational Sciences (NCATS), 2010).

The assay in a line: qHTS Assay for Lipid Storage Modulators in Drosophila S3 Cells.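 For cell number change: cells counted by Cell Tracker Red CMTPX staining in the red channel.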 To be noted: BODIPY lipid droplet fluorescence, 18-24 h; for cell number change: measured here: cell count max response, cells fed with added oleic acid. The gist of the method:
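Drosophila S3 cells got compounds at several concentrations plus oleic acid (400 uM solution). Laser-scanning cytometry with 488 nm excitation read lipid droplets at 500-530 nm and cells at 575-640 nm. Percent activity was relative to 20 uM Triacsin C.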
On the technique in general: Quantitative high-throughput screening tests each substance at several concentrations.

Where [1] appears, read: measured here: cell number channel AC50, cells fed with added oleic acid.
Where [2] appears, read: measured here: lipid fluorescence (Fed channel) AC50, cells fed with added oleic acid.

One may read the AC50 as the midpoint of the concentration-response curve, whichever way the signal moves. Lower therefore signals activity at low concentration. Take `CCN1CCN(c2ccc(S(=O)(=O)N3CCCCC3)cc2NC(=O)CC(C)c2ccccc2)CC1` (stereo not given): the cell number change is 89.2%. Besides, under setting [1], the AC50 was 18.4 µM [rising, single point].
`Cc1cc(NC(=O)Nc2ccccc2Cl)no1`: the cell number change is -11.9%. Moreover, the AC50 under setting [2] is 0.103 µM [falling, full curve, poor fit].
In the case of `C=CCN1C(=O)C(O)(CC(=O)c2ccc(N)cc2)c2ccccc21` (stereo not given), the cell number change is -1.01%. The AC50 under setting [2] was 0.206 µM [falling, full curve, poor fit].
In the case of `Cc1ccc(OCCNc2cc(N3CCN(CCO)CC3)ccc2[N+](=O)[O-])cc1C`, the cell number change was -29.5%. In addition, the AC50 under setting [2] was 8.2 µM [falling, single point].
On to `C=CCC1Cc2c(Br)cccc2C(CC=C)N1` (stereo not given), for which the cell number change is 5.48%.
`Cc1ccccc1NC(=O)c1onc2c1CCCC2`: the AC50 under setting [2] is 10.3 µM [falling, partial curve].
As for `CCS(=O)(=O)N1CCN(S(=O)(=O)c2ccccc2)CC1`, the cell number change was -34.6%. Besides, under setting [2], the AC50 was 0.103 µM [falling, full curve, poor fit].
For the molecule `CCC(=O)N(CCc1ccc(OC)c(OC)c1)Cc1cc2ccc(C)cc2n2nnnc12`, the half-maximal activity concentration (AC50) under setting [2] is 3.66 µM [falling, full curve].
As to `CCN1CCn2c3c(c4cc(Cl)ccc42)CCCC31` (stereo not given), the cell number change was -27.2%. Moreover, the AC50 under setting [2] is 1.3 µM [falling, full curve].
On to `COC(=O)COc1ccc(S(=O)(=O)N2CCCCC2)cc1[N+](=O)[O-]`, for which the cell number change was 6.19%.
On to `CC(NC(=O)/C=C/c1cnc2ccccc2n1)C12CC3CC(CC(C3)C1)C2` (stereo not given), for which the cell number change was -3%. Moreover, the AC50 under setting [2] was 4.11 µM [rising, partial curve].
With `Oc1ccccc1-c1nc(/C=C/c2ccccc2)nn1-c1ccccc1`, the cell number change was -48.1%. In addition, the AC50 under setting [1] is 32.6 µM [falling, single point]. Further, the AC50 under setting [2] is 3.26 µM [falling, partial curve].
Regarding `Cc1cc(=O)oc2c3c(cc(OCC(=O)NC(Cc4ccc(Cl)cc4)C(=O)O)c12)OC(C)(C)CC3` (stereo not given), the cell number change stood at 17.8%. For the same molecule, under setting [2], the AC50 was 29.1 µM [falling, single point].
Regarding `O=C(N1CCN(Cc2ccccc2)CC1)C12CC3CC(CC(C3)C1)C2`, the cell number change was -56.9%. In addition, the AC50 under setting [1] is 32.6 µM [falling, single point].
As to `O=[N+]([O-])c1ccc(Nc2ccccc2F)nc1`, the cell number change is -5.28%. The AC50 under setting [2] was 0.82 µM [falling, full curve].
As to `CC1(C)CCc2cc(-c3ccnc(=S)[nH]3)ccc2O1`, the cell number change is -47.6%. Moreover, the concentration at half-maximal activity (AC50) under setting [1] was 0.731 µM [falling, full curve]. Moreover, the AC50 under setting [2] is 29.1 µM [falling, single point].
For `Cn1cnc([N+](=O)[O-])c1SCC(=O)NN`, the cell number change worked out at 21.8%. For the same molecule, the AC50 under setting [2] is 2.06 µM [rising, full curve, poor fit].
As to `CCOc1ccc(CNS(=O)(=O)c2c(C(=O)N3CCCC3)c(C)n(C)c2C)cc1OC`, the cell number change is -0.659%. For the same molecule, the AC50 under setting [2] is 29.1 µM [rising, single point].
Turning to `CCCC(=O)Nc1ccc(NC(=S)NC(=O)c2cccs2)cc1`, the cell number change was -34%. In addition, the AC50 under setting [1] is 23.1 µM [falling, single point].
With `CCOc1cc(CN2CCN(c3cccc(C(F)(F)F)c3)CC2)ccc1O`, the cell number change is -64.6%. Also, the AC50 under setting [1] is 13 µM [falling, partial curve, poor fit]. For the same molecule, the AC50 under setting [2] was 29.1 µM [falling, single point].
`CCn1c2ccccc2c2cc(NC(=O)c3coc(=O)c(Br)c3)ccc21`: the cell number change worked out at 6.2%. The AC50 under setting [1] was 6.51 µM [falling, single point]. Also, the half-maximal activity concentration (AC50) under setting [2] was 6.51 µM [falling, single point].
As to `Cc1ccc(C)c(-n2c(Cc3cc(=O)[nH]c(=O)[nH]3)nnc2SCC(=O)NCC2CCCO2)c1` (stereo not given), the cell number change is -14.1%. Moreover, the half-maximal activity concentration (AC50) under setting [2] is 2.59 µM [rising, single point].
For `C[C@H](NC(=O)c1nc[nH]c1C(=O)NCCCCCN)C(=O)OC(C)(C)C`, the cell number change was -36.6%. The AC50 under setting [1] is 0.146 µM [falling, full curve, poor fit]. The AC50 under setting [2] is 0.092 µM [falling, full curve, poor fit].
`O=C(COC(=O)c1ccccc1Nc1ccccc1)NCc1ccco1`: the AC50 was 6.51 µM [falling, single point] under setting [1] and 6.51 µM [falling, single point] under setting [2].
With `CCOc1ccc(-n2nnnc2SCC(=O)Nc2cccc(O)c2)cc1`, the cell number change was -20.7%. Besides, under setting [2], the AC50 was 18.4 µM [falling, single point].
Consider `CC(Sc1nc2ccccc2s1)C(=O)c1c(N)n(C)c(=O)n(C)c1=O` (stereo not given), for which the cell number change is -0.844%.
As to `O=C1NC(c2ccccc2)(C(F)(F)F)C(=O)N1Cc1cccnc1` (stereo not given), the cell number change came to 39.6%. Moreover, the AC50 under setting [1] was 2.59 µM [rising, partial curve].
`CCOc1ccc(NC(=O)CN(C)C(=O)c2ccc(NC3CC3)c([N+](=O)[O-])c2)cc1OCC`: the cell number change is 2.93%.
Consider `COC(=O)C1=C(C(=O)OC)[C@@H]2N(Cc3ccccc3)c3ccccc3[C@@]23C[C@@H](C(=O)OC)N(C(=O)c2ccc(Br)cc2)C3=N1`, for which the cell number change was -3.59%. Besides, the AC50 under setting [2] is 0.231 µM [rising, full curve, poor fit].
`CN(C)CCNc1nc2sc3c(c2c(=O)n1CCc1ccccc1)CCCCC3`: the cell number change is -13.9%. Besides, the AC50 under setting [2] was 32.6 µM [falling, single point].
With `Cc1ccc(S(=O)(=O)NC(C)C(=O)Nc2ccc(C(N)=O)cc2)cc1` (stereo not given), the cell number change is -3.88%. The AC50 under setting [2] is 3.66 µM [falling, partial curve].
Consider `N#Cc1cc(C(=O)c2cc(F)ccc2O)cn(-c2nccs2)c1=O`, for which the cell number change turned out to be 38.4%. Under setting [1], the AC50 was 4.61 µM [rising, full curve, poor fit]. For the same molecule, the half-maximal activity concentration (AC50) under setting [2] was 6.51 µM [rising, partial curve, poor fit].
On to `Cc1cccc(NC(=S)N2CCC(O)CC2)c1C`, for which the cell number change was 8.26%. Moreover, the AC50 under setting [2] is 0.562 µM [falling, partial curve].
Turning to `CCOC(=O)CNc1nc(Cl)c(C#N)s1`, the cell number change was -5.89%.
Take `CC1CC(C)CN(C(=O)c2cc(-c3ccncc3)nc3ccccc23)C1` (stereo not given): the AC50 under setting [2] was 3.66 µM [rising, single point].
Take `CCC(C(=O)NCc1cccc(C)c1)n1nc(C)c2c(C)n(-c3ccccc3)nc2c1=O` (stereo not given): the cell number change stood at 2.65%. Besides, the AC50 under setting [2] was 6.51 µM [falling, single point].
Take `O=C(CSc1nc2ccccc2o1)N/N=C/c1ccc(O)c(O)c1`: the cell number change is -20.6%.
Take `Cc1cc(C(=O)C(=O)O)c(C)n1-c1ccc(Cl)cc1`: the cell number change stood at 0.615%. Besides, the AC50 under setting [1] is 6.51 µM [falling, single point].
As for `CC(C)NC(=O)COC(=O)c1ccc(Cl)c(S(N)(=O)=O)c1`, the cell number change was -28%. In addition, the AC50 under setting [1] is 3.66 µM [falling, single point].
On to `COc1cc(Cl)c(C)cc1NC(=O)CSc1nc2ccccc2o1`, for which the AC50 under setting [2] was 0.731 µM [rising, single point].
Turning to `CCOC(=O)c1cnc2nc(N3CCOCC3)nn2c1N`, the cell number change was found to be 8.28%.
Turning to `c1ccc2oc(-c3csc(NCC4CCCO4)n3)cc2c1` (stereo not given), the cell number change was determined as 49.6%. Under setting [1], the AC50 is 2.59 µM [rising, full curve].
With `O=c1c2ccccc2c(/C=N/c2ncn[nH]2)c(O)n1Cc1ccccc1`, the cell number change was -22.3%.
As to `COc1ccc(OC(C)C(=O)N2CCN(c3ccccn3)CC2)cc1` (stereo not given), the cell number change was -2.43%. In addition, under setting [2], the AC50 is 20.6 µM [rising, single point].
Consider `Cc1nn(-c2ccccc2)c(C)c1/C=N\NS(=O)(=O)c1ccc(Cl)cc1`, for which the cell number change amounted to 76.2%. Also, under setting [1], the AC50 is 13 µM [rising, partial curve]. In addition, the AC50 under setting [2] was 6.51 µM [rising, single point].
With `CCN(CC)c1ccc(/C=N/NC(=O)OC)c(O)c1`, the AC50 under setting [2] is 2.06 µM [falling, partial curve].
Take `CCn1cc(C(=O)NCc2ccco2)c(=O)c2cc(S(=O)(=O)N3CCC(C)CC3)ccc21`: the cell number change was -16%. Besides, under setting [1], the AC50 is 0.326 µM [falling, full curve, poor fit]. Besides, the AC50 under setting [2] is 0.146 µM [falling, full curve, poor fit].
Regarding `CC(=O)c1c(C)nc(-c2ccccc2)nc1NC(=O)C(C)C`, the cell number change was 78.4%. Also, the AC50 under setting [1] is 10.3 µM [rising, partial curve]. Also, the AC50 under setting [2] was 0.00517 µM [rising, full curve, poor fit].
For `Nc1nnc(SC2CC(=O)N(c3ccccc3)C2=O)s1` (stereo not given), the cell number change is 3.04%. Also, the AC50 under setting [2] was 11.6 µM [rising, partial curve, poor fit].
Consider `Cc1ccc2c(CC(=O)O)coc2c1`, for which the cell number change turned out to be 21.5%. Further, under setting [2], the AC50 is 32.6 µM [falling, partial curve, poor fit].
`O=C(NCC1CCN(Cc2cccc(Cl)c2)CC1)C1CCCN(c2ncnc3c2nc2n3CCCCC2)C1` (stereo not given): the cell number change is 8.66%.
Regarding `Cc1ccc(C(=O)O/N=C/c2c(N3CCOCC3)n(C)c3ccccc23)cc1`, the cell number change is -16.3%. Under setting [2], the AC50 was 18.4 µM [falling, partial curve].
In the case of `CCOC(=O)c1c(-c2ccc(OC)cc2)csc1/N=C/C1C(=O)CCCC1=O`, the cell number change was -44.2%. The AC50 under setting [2] was 29.1 µM [falling, single point].
Turning to `Cc1c(Cl)cccc1NC(=O)Nc1cnccn1`, the cell number change was found to be 2.44%. The AC50 under setting [2] is 11.6 µM [falling, partial curve, poor fit].
As for `Cc1nc2scc(-c3cccs3)c2c(=O)n1N`, the cell number change is -39.4%. For the same molecule, the half-maximal activity concentration (AC50) under setting [1] is 7.31 µM [falling, partial curve]. In addition, the AC50 under setting [2] is 6.51 µM [falling, partial curve].
`COc1cc(NC(=O)c2ccc(F)cc2)c(OC)cc1NC(=O)CN1CCCCC1`: the cell number change was -1.25%.
With `Cc1c(O)ccc2c(CN(C)Cc3ccccc3)cc(=O)oc12`, the cell number change was 7.68%. Under setting [1], the AC50 is 0.58 µM [falling, single point].
Consider `Cn1c(=O)n(C)c2cc(NS(=O)(=O)c3ccccc3[N+](=O)[O-])ccc21`, for which the cell number change came to 16.1%.
With `COc1cccc(/C=N/NC(=S)NC2CC3CCC2C3)c1OC` (stereo not given), the AC50 under setting [2] is 1.3 µM [rising, partial curve].
Turning to `CCc1noc(C)c1C(=O)N1CCC(CCC(=O)Nc2cccc(OC)c2)CC1`, the cell number change is 3.74%. Further, under setting [2], the AC50 is 0.112 µM [rising, full curve, poor fit].
As for `Cc1ccc2c(c1)C(c1ccncc1)=NNC(c1ccc(F)cc1)=N2`, the cell number change is 16.9%. Moreover, the concentration at half-maximal activity (AC50) under setting [1] was 0.517 µM [rising, full curve, poor fit].
